Experimental data from article doi:10.1101/2021.09.30.462597 (bioRxiv, 2021).
No constants are given. Whether binding was seen depends on the method and setting. For some assays here: Binding seen in cells or lysates may run through a third protein. Some results given as binding are weak or reduced against the parent protein; the word gives no strength. For some assays here: Tags and fused reporters may be left off the sequences shown. Blank lines part the entries; values can stand above or below the molecule they belong to.

Legend:
[1] = biological target: T1, GST-Kif7-CC E502A (human) (UniProt Q2M1P5); test: BLI
T1 sequence: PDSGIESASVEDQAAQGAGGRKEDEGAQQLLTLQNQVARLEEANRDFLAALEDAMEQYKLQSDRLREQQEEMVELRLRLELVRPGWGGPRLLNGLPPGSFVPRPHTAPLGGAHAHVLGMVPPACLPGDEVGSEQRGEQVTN

[2] = biological target: T2, GST-Kif7-CC E501A/E502A (human) (UniProt Q2M1P5); test: BLI
T2 sequence: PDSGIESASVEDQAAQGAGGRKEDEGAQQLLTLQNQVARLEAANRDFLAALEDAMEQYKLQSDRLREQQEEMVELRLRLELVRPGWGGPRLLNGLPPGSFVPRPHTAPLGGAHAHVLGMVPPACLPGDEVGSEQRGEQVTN

[3] = biological target: T3, GST-Kif7-CC E502A/D505A (human) (UniProt Q2M1P5); test: BLI
T3 sequence: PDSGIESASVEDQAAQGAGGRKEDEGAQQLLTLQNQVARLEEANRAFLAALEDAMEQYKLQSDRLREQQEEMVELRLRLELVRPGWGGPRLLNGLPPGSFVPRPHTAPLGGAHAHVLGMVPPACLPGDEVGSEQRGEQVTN

[4] = biological target: T4, Gli2-ZF-GFP (human, UniProt P10070 418-604); test: single molecule fluorescence intensity and photobleaching analysis
T4 sequence (looked up): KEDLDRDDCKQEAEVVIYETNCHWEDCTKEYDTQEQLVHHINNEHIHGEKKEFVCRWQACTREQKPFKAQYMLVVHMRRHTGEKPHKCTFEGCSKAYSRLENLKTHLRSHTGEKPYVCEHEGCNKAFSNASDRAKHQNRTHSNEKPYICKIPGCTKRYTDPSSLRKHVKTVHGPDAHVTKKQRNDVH

[5] = biological target: T5, Kif7-CC S2 (E511A/E515A) mutant (human) (UniProt Q2M1P5); test: co-IP
T5 sequence: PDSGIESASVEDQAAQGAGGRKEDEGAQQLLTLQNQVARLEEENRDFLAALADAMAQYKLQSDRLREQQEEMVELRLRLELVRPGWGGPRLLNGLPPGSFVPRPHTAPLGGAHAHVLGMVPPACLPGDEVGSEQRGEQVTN

[6] = biological target: T6, FLAG-Kif7(460-600aa), first coiled-coil dimerization domain of Kif7 (human) (UniProt Q2M1P5); test: co-IP
T6 sequence: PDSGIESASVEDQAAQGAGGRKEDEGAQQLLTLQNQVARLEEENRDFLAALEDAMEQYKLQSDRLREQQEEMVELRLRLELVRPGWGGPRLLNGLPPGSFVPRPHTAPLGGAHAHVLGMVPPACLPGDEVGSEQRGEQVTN

[7] = biological target: T7, Kif7-CC S1 (E500A/E501A/E502A/D505A) mutant (human) (UniProt Q2M1P5); test: co-IP
T7 sequence: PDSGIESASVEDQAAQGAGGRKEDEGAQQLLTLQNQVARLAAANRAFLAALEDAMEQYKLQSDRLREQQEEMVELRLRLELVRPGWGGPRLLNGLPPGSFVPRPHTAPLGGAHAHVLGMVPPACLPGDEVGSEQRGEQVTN

[8] = biological target: T8, Kif7-MM, monomeric Kif7 motor domain (1-386aa) (human), Q2M1P5; test: BLI; conditions: remark: other sources report otherwise
T8 chain: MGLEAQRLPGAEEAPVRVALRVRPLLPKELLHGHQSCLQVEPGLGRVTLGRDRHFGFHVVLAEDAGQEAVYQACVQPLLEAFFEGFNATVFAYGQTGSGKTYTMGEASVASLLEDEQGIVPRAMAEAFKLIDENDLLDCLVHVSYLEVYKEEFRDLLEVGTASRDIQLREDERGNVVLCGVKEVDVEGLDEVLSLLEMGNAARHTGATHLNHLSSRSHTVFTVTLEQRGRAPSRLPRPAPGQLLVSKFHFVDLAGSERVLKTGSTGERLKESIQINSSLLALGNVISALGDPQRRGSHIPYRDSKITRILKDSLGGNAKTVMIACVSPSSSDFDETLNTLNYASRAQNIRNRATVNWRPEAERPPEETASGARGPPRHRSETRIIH

Molecule: Gli2-ZF, zinc-finger domain of Gli2 (recombinant) (from UniProt P10070 418-604) (domain or fragment)
binding [1]: no binding
binding [2]: no binding
binding [3]: no binding

Molecule: Gli2-ZF-GFP (from UniProt P10070 418-604) (domain or fragment)
binding [4]: no binding

The remaining lines, values ahead:

binding [5]: binds
binding [6]: binds
binding [7]: no binding
Molecule: c-Myc-Gli2(418-594aa), DNA-binding zinc finger domain of Gli2 (from UniProt P10070 418-594) (domain or fragment)

binding [8]: no binding (tested: 12µM Gli2-ZF)
B1: Gli2-ZF, zinc-finger domain of Gli2 (recombinant), P10070 418-604 (domain or fragment)
chain: KEDLDRDDCKQEAEVVIYETNCHWEDCTKEYDTQEQLVHHINNEHIHGEKKEFVCRWQACTREQKPFKAQYMLVVHMRRHTGEKPHKCTFEGCSKAYSRLENLKTHLRSHTGEKPYVCEHEGCNKAFSNASDRAKHQNRTHSNEKPYICKIPGCTKRYTDPSSLRKHVKTVHGPDAHVTKKQRNDVH
